In PubChem BioAssay AID504467 (National Center for Advancing Translational Sciences (NCATS), 2011):
Among all 330,000 compounds or so, about 7,700 (2.3%) were called active. This list was built around the results that the source calls inconclusive (neither active nor inactive); the mix of calls is not that of the screen. The call rests on the fitted dose curve; in most records, active means well fitted inhibition curve with a large enough effect; inconclusive means small, poorly fitted or top-dose-only effect, or effect the other way; inactive means flat fitted curve, though single readings scatter. Potencies of inconclusive entries are doubtful fits and often do not repeat.

test: qHTS screen for small molecules that inhibit ELG1-dependent DNA repair in human embryonic kidney (HEK293T) cells expressing luciferase-tagged ELG1; conditions: HEK293T ELG1-luciferase reporter, luminescence, 16 h, DNA damage induced by 5-fluorouridine; series mostly up to 46.1 µM; further: nearly all actives have a fitted effect of over 55% in size
Summary of the method: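 5-Fluorouridine DNA damage + compound/DMSO, 2,000 cells/well, 16 h, 37 °C/5% CO2. ONE-Glo, 30 min RT, luminescence. Readout = decrease in reporter signal.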
Potency means the concentration at half of the fitted maximal effect.

Row | Structure (SMILES) | Potency
1 | CN(C)c1ccc(C(=O)NCC2CCCO2)cc1 (centres undefined) | inconclusive: 18.4 µM [activator, partial curve]
2 | Cc1ccc2oc(=O)c3cc(C(=O)NCCCN4CCN(C)CC4)sc3c2c1 | inactive
3 | COc1ccc(C(C(=O)NC2CCCC2)N(Cc2ccccc2)C(=O)c2snc(C(N)=O)c2N)cc1OC (centres undefined) | inconclusive: 18.3 µM [inhibitor, single point]
4 | CCN(CC)Cc1cc(C(=O)O)c(C)o1 | inconclusive: 29.1 µM [activator, single point]
5 | COc1ccccc1C1C2=C(N=c3s/c(=C/c4cccc(OCC(=O)O)c4)c(=O)n31)c1ccccc1CC2 (centres undefined) | inactive
6 | C#CC1(NC(=O)N(C)C)CCCCC1 | inconclusive: 18.3 µM [inhibitor, single point]
7 | O=C(CCNC(=O)c1ccccc1)NNC(=O)c1ccccc1Br | inactive
8 | O=C(Nc1ccccc1C(=O)Nc1ccncc1)c1cccc([N+](=O)[O-])c1 | inconclusive: 13 µM [activator, partial curve]
9 | CCS(=O)(=O)c1ccc(-c2csc(-c3ccc(Cl)cc3)n2)c(Cl)c1Cl | inactive
10 | CC1=CN2C(=N)/C(=C/c3cn(CCCOc4ccccc4C)c4ccccc34)C(=O)N=C2S1 | inconclusive: 4.11 µM [activator, full curve]
11 | Cc1cnc(NC(=O)Nc2ccc(OCc3ccccc3)cc2)c(Br)c1 | inconclusive: 14.6 µM [activator, partial curve]
12 | CC(NC(=O)C(=O)NN=C1CCCC1)c1ccccc1 (centres undefined) | inactive
13 | O=C(Cc1ccc(Cl)cc1)N1CCN(c2ccc(F)cc2)CC1 | inactive
14 | Cc1cccc(C(=O)NCC(=O)OCC(=O)N2CC3(C)CC2CC(C)(C)C3)c1 (centres undefined) | inactive
15 | Cc1ccc(-c2[nH]c3ccccc3c2SCCNC(=O)c2ccc(S(=O)(=O)N3CCOCC3)cc2)cc1 | inconclusive: 23.1 µM [inhibitor, partial curve, poor fit]
16 | CCN(CC)C(=O)CSc1nnc2sc3ccccc3n12 | inconclusive: 10.3 µM [activator, partial curve, poor fit]
17 | CCOC(=O)c1ccc(NC(=O)Nc2ncccc2C)cc1 | inconclusive: 18.3 µM [activator, partial curve]
18 | O=C(Cc1cc(=O)[nH]c(=O)[nH]1)NCc1ccccc1 | inactive
19 | CC(C)NC(=S)NNC(=O)C12CC3CC(CC(C3)C1)C2 | inconclusive: 0.259 µM [inhibitor, single point]
20 | Cc1cccc(-[n+]2c(-c3cccc(Br)c3)[nH]c3nc4ccccc4nc32)c1 | inconclusive: 16.4 µM [inhibitor, partial curve]
21 | Cc1ccccc1NC(=O)N1CCCC(c2nc(-c3ccc(C(C)C)cc3)no2)C1 (centres undefined) | inconclusive: 2.06 µM [activator, partial curve]
22 | Clc1cccc(CN2C3=NCCCN3c3ccccc32)c1 | inactive
23 | COc1ccc(N2CCn3c2nc2c3c(=O)n(CCc3ccccc3)c(=O)n2C)c(OC)c1 | inconclusive: 2.59 µM [inhibitor, full curve]

Row | Structure (SMILES) | Potency
24 | CC(C)(C)C(=O)NC(=S)Nc1ccccc1C(=O)NC1CCCCC1 | inconclusive: 32.6 µM [activator, partial curve, poor fit]
25 | COc1cc2c(cc1NC(=O)CN(C)Cc1nc3ccccc3c(=O)[nH]1)oc1ccccc12 | inconclusive: 5.17 µM [inhibitor, single point]
26 | O=C(Nc1ccc(N2CCN(C(=O)c3cccs3)CC2)cc1)c1ccccc1Cl | inconclusive: 23.1 µM [inhibitor, partial curve]
27 | CN(C)C(=O)CSc1nc(-c2ccccc2)c(-c2ccccc2)o1 | inactive
28 | CCCCOC(=O)Nc1nc(C)c(C(=O)OCC)s1 | inconclusive: 13 µM [activator, partial curve]
29 | O=[N+]([O-])c1cccc(COc2ncnc3cc([N+](=O)[O-])ccc23)c1 | active: 10.3 µM
30 | CCC[C@@H](CN1CCC[C@H]1CN1C(N)=NC[C@H]1CC(C)C)N1C[C@@H](Cc2ccccc2)N(CCc2ccc(Cl)c(Cl)c2)C1=N | inactive
31 | COc1cccc(-c2noc(C3CCCN(S(=O)(=O)c4cccc(Cl)c4C)C3)n2)c1 (centres undefined) | inactive
32 | Cc1cc(C)c2c(N)c(-c3nc4ccccc4[nH]3)sc2n1 | inconclusive: 11.6 µM [activator, partial curve, poor fit]
33 | COc1ccc(CNC[C@@H](CCCCN(C)Cc2ccc(OC)cc2)N2C[C@H](c3ccccc3)N(CCc3ccc(Cl)c(Cl)c3)C(=O)C2=O)cc1 | inactive
34 | Cc1cc(=O)[nH]c(SCC(=O)N2CCCC2)n1 | inactive
35 | Cc1ccc(-c2csc(-c3c[nH]c4ccccc34)n2)c(C)c1 | inactive
36 | Oc1[nH]c2ccccc2c1N=NC(=S)NCC1CCCO1 (centres undefined) | inconclusive: 25.9 µM [inhibitor, single point]
37 | COc1ccc(C(=O)/C=C/c2ccc(OC)c(CN3CCOCC3)c2)cc1 | inconclusive: 29.1 µM [inhibitor, single point]
38 | O=S1(=O)Nc2c(ccc3cccnc23)-c2ccccc21 | inconclusive: 29.1 µM [inhibitor, single point]
39 | CCOC(=O)c1ccc(NC(=O)C2CC2)cc1 | inconclusive: 14.6 µM [activator, partial curve]
40 | COc1cc(CNCCCN2CCOCC2)cc(Br)c1OCC(=O)N1CCCCC1 | inconclusive: 20.6 µM [activator, partial curve, poor fit]
41 | O=C(CCn1c(=O)oc2ccccc21)Nc1ccon1 | inconclusive: 7.31 µM [activator, partial curve, poor fit]
42 | Cc1ccccc1OCC(O)Cn1c(NCc2ccco2)nc2c1c(=O)n(C)c(=O)n2C (centres undefined) | inconclusive: 23.1 µM [inhibitor, single point]
43 | Cc1nc(NC(=O)C(C)Oc2cccc(Cl)c2)sc1C(=O)N(C)C (centres undefined) | inconclusive: 18.4 µM [activator, single point]
44 | Cc1ccc(CSc2ccc(-c3ccco3)nn2)cc1 | inconclusive: 11.6 µM [activator, partial curve]
45 | Cc1onc(-c2ccccc2)c1C(=O)Nc1nc(-c2ccccc2)cs1 | inconclusive: 10.3 µM [activator, partial curve]
46 | Cc1cccc(-n2cnc(C(=O)NC3CCCCCC3)c2)n1 | inconclusive: 14.6 µM [activator, partial curve]

An excerpt from above in order of formula weight, smallest number first:
Row | Structure (SMILES) | Potency
44 | Cc1ccc(CSc2ccc(-c3ccco3)nn2)cc1 | inconclusive: 11.6 µM [activator, partial curve]
28 | CCCCOC(=O)Nc1nc(C)c(C(=O)OCC)s1 | inconclusive: 13 µM [activator, partial curve]
45 | Cc1onc(-c2ccccc2)c1C(=O)Nc1nc(-c2ccccc2)cs1 | inconclusive: 10.3 µM [activator, partial curve]
43 | Cc1nc(NC(=O)C(C)Oc2cccc(Cl)c2)sc1C(=O)N(C)C (centres undefined) | inconclusive: 18.4 µM [activator, single point]
40 | COc1cc(CNCCCN2CCOCC2)cc(Br)c1OCC(=O)N1CCCCC1 | inconclusive: 20.6 µM [activator, partial curve, poor fit]

Following part:

Row | Structure (SMILES) | Potency
47 | Cc1ccc(C(=O)NCC(=O)OCc2csc(-c3ccccc3)n2)cc1 | inconclusive: 20.6 µM [activator, single point]
48 | CC(C)(C#N)NC(=O)C1CCCN1S(=O)(=O)c1ccc2ccccc2c1 (centres undefined) | inactive
49 | COc1cc(NCCCC(C)N)c2ncccc2c1 (centres undefined) | inconclusive: 7.31 µM [inhibitor, partial curve, poor fit]
50 | CN(C)CCCN=Cc1c(O)n(Cc2ccc3c(c2)OCO3)c(=O)c2ccccc12 | inactive
51 | CN(C)CC(O)COC(c1ccc(Cl)cc1)c1ccc(Cl)cc1 (centres undefined) | inactive
52 | COc1ccc(CNC(=O)c2nnn(CC(=O)Nc3cc(C)cc(C)c3)c2N)cc1 | inconclusive: 20.6 µM [activator, single point]
53 | CC(=O)c1cccc(Nc2nc(-c3cccc([N+](=O)[O-])c3)cs2)c1 | inconclusive: 5.17 µM [activator, partial curve]
54 | COc1ccc(OCC(=O)N/N=C2\CCc3ccccc32)cc1 | inconclusive: 20.6 µM [activator, single point]
55 | Cc1ccc(S(=O)(=O)N2CCCCC2)cc1NC(=O)Cn1c(=O)cnc2ccccc21 | inconclusive: 23.1 µM [inhibitor, single point]
56 | Cc1ccc(C)c(CN2CCCN(Cc3cc(C)ccc3C)S2(=O)=O)c1 | inactive
57 | Cc1cccc(/C=C\c2nc3ccccc3c(=O)[nH]2)c1 | inconclusive: 0.82 µM [activator, full curve]
58 | Cc1cccc(N2CCN(C(=O)CCCn3c(=O)c4cccn4c4cccnc43)CC2)c1C | active: 16.4 µM
59 | CC(Sc1ccccc1)C(=O)NCCc1ccccc1 (centres undefined) | inactive
60 | Cc1ccc2c(c1)NC(=O)C(CC(=O)NCCCN1CCN(c3cc(Cl)ccc3C)CC1)O2 (centres undefined) | inconclusive: 23.1 µM [inhibitor, partial curve]
61 | Cc1ccc(S(=O)(=O)Nc2ccc(C(=O)NCCCn3ccnc3)cc2)cc1[N+](=O)[O-] | inconclusive: 20.6 µM [activator, single point]
62 | Cc1cc(C)c(NC(=O)C2CSCCS2)c(C)c1 (centres undefined) | inconclusive: 20.6 µM [activator, single point]
63 | O=Cc1cn(-c2ccccc2)nc1-c1ccncc1 | inactive
64 | COc1ccc(CNC(=O)CCSCc2cccc(Cl)c2)cc1 | inconclusive: 18.4 µM [activator, partial curve, poor fit]
65 | O=C1C(Nc2ccccc2)=C(N2CCCCC2)C(=O)c2ccccc21 | inconclusive: 23.1 µM [inhibitor, single point]
66 | CCCn1nc2cc(C(=O)NC3CCc4ccccc43)ccc2c1OCC (centres undefined) | inconclusive: 29.1 µM [inhibitor, single point]
67 | Cc1c(CC(=O)O)c(=O)oc2cc(OCc3ccc(Cl)cc3)ccc12 | inconclusive: 18.3 µM [activator, single point]
68 | CC1(NC(=O)CC(c2ccccc2)(c2ccccc2)c2ccccc2)CCN(CCCc2ccccc2)C1=O (centres undefined) | inconclusive: 18.3 µM [inhibitor, single point]
69 | Cc1ccc(C(=O)Nc2nnc(-c3ccco3)o2)cc1C | inconclusive: 20.6 µM [activator, partial curve]
